Some of the results follow.
B1: il2ra_site1_3nfp_sap_14_mot_HHH_b1_05843_af2_000000150_0001_1_20_H_._HHH_b2_02396_0001_0000300026_0000001_0_0001 (protein)
chain: SSSSTEEEIEELKEELKRVMEKGDFQRAARLIDEIYKLISRADDPELRRELQELLREFQRLSSSS
B2: il2ra_site2_2erj_sap_26_mot_HHH_b2_03469_000000216_0001_20_36_H_._HHH_b1_02176_af2_0001_0000200009_0000001_0_0001 (protein)
chain: SSSSSSLHELYELANRIMHALANNDEEEAEKLIEEAEELIKKLGSDTAREILEWLRREVNSSSSS
B3: il2ra_site2_2erj_sap_23_mot_HHH_b2_01204_af2_000000056_0001_19_34_H_._HHH_b2_01294_af2_0001_0000400036_0000001_0_0001 (protein)
chain: SSSSSDKEEVQEEVEELLEEARHADLHEIYELLNEALRLAAELRDPELLRLVRRFMEEWSSSSSS
B4: il2ra_site1_3nfp_normal_mot_HHH_b1_07204_af2_000000238_0001_41_55_H_._3636d11ad4101c8d40e62ba374344ff5_0001_af2_0001_0000100006_0000001_1 (protein)
chain: SELKEEVKKALEEGNALLLSRLIRELARLLQEGDPEAHEVLELLLELARELGDPILERLLEDILK
B5: il2ra_site2_2erj_sap_15_mot_HHH_b2_06236_000000050_0001_39_52_H_._HHH_b2_05940_0001_0000600008_0000001_0_0001 (protein)
chain: SSSSDEAWEEVAELLARALEAFKNNDEELLEKLLEEARRIAEENNSEAAKRYVEFARRLTKSSSS
B6: il2ra_site1_3nfp_sap_15_mot_HHH_b1_01736_000000293_0001_24_39_H_._HHH_b2_04807_af2_0001_0000400020_0000001_0_0001_af2pred_0001_af2pred (protein)
chain: SSSSNAREELRELIRLVAELYRNGNPEEAREVAEEAIELARELNSPNARRFAELALEQLNSSSSS
B7: il2ra_site2_2erj_normal_mot_HHH_b2_01353_af2_000000049_0001_23_39_H_._HHH_b1_04468_af2_0001_0000300013_0000001_0 (protein)
chain: SSSSDEEEEAEELLREVKRLYEEGNPEEAEKLAREVSERLFRLGNFEFFAILAELVHRIARSSSS
B8: il2ra_site2_2erj_sap_12_mot_HHH_b1_05666_000000037_0001_42_55_H_._HHH_b2_06677_0001_0000400020_0000001_0_0001 (protein)
chain: SSSSDERLHELYKLANELLRLEFEGDEERIEELLQRVRELAEELKSDAARELVERVEKKLSSSSS
B9: il2ra_site1_1z92_normal_mot_9c3e5e2d2b9ffb70dc788f52fbfab6d5_0001_1_af2_000000019_0001_53_65_H_._1120a227123fe120892103896c8fe6e4_0001_1_0001_0000100002_0000001 … (protein)
chain: DAEEVLEEAAKLVKEGNPEEAKRLLEELVEKLGDPALRVLLKIVERLLREGDEERVHKLLHKLAR
B10: il2ra_site1_2b5i_normal_mot_HHH_b1_02271_000000068_0001_1_16_H_._HHH_b1_08571_af2_0001_0000500013_0000001_0_af2pred_dldesign_0_af2pred (protein)
chain: SSSSSDVLAEARRLYERARELKAAGKRREALELLEEAKKLADAADDEELQDRIEALAKEVSSSSS

Molecular target: il2ra, P01589
Assay: yeast display titration

| Binder | apparent Kd |
| --- | --- |
| B1 | inactive: no binding seen |
| B2 | inactive: no binding seen |
| B3 | inactive: no binding seen |
| B4 | inactive: no binding seen |
| B5 | inactive: no binding seen |
| B6 | inactive: no binding seen |
| B7 | inactive: no binding seen |
| B8 | inactive: no binding seen |
| B9 | inactive: no binding seen |
| B10 | inactive: no binding seen |

Shown tab-delimited: part of the list above.
Binder	apparent Kd
B4	inactive: no binding seen
B5	inactive: no binding seen
